Results deposited as PubChem BioAssay AID743454 (Peter MacCallum Cancer Centre, 2014).
The deposit covers about 18,000 reagents; below is an unselected part. 450 of them (2.5%) count as active. 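Single biological run; no consistent viability z cut-off exists, so the class columns, not z-scores, define the calls.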 Reagent sequences are not shown.

Purpose: 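Search for knock-downs that restore vorinostat killing in resistant colon cancer cells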 (primary screen)
Cells: human HCT116-VR colon cancer cells, selected for vorinostat resistance
Reagents: siRNA pool against human genes, 40 nM siRNA pool
Duration: vorinostat for 24 h, read-out about 72 h after transfection
Conditions: vorinostat at 2.5 µM final
Measured: 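Cell viability by CellTiter-Fluor and caspase 3/7 activity by luminescence, each scaled to mock wells per plate, duplicates averaged, then robust z-scored over all plates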
Direction: viability robust z-score: higher = more viable cells than screen typical; caspase robust z-score: higher = more caspase 3/7 activity than screen typical
Hit rule: 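Hits are knock-downs in viability class RV1/RV2 or caspase class CA1/CA2, excluding ones that killed cells in the no-drug cell-count arm; hits then retested with single siRNAs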

For EPB41L4B (GeneID 54566), what does the deposit list?
viability hit class: no change; caspase hit class: no change; viability robust z-score: 0.26; caspase robust z-score: -0.57; Outcome: inactive

With MED24 (GeneID 9862), how do the results read?
viability hit class: no change; caspase hit class: no change; viability robust z-score: 1.77; caspase robust z-score: -0.75; Outcome: inactive

How did the screen score H2AC21 (GeneID 317772)?
viability hit class: no change; caspase hit class: no change; viability robust z-score: 1.18; caspase robust z-score: 1.62; Outcome: inactive

With PAQR6 (GeneID 79957), how do the results read?
viability hit class: no change; caspase hit class: no change; viability robust z-score: 0.48; caspase robust z-score: -0.1; Outcome: inactive

With SLC4A10 (GeneID 57282), what was measured?
viability hit class: no change; caspase hit class: no change; viability robust z-score: 0.26; caspase robust z-score: -1.1; Outcome: inactive

With KXD1 (GeneID 79036), what was measured?
viability hit class: no change; caspase hit class: no change; viability robust z-score: -0.98; caspase robust z-score: -0.7; Outcome: inactive

What did the screen give for BROX (GeneID 148362)?
viability hit class: no change; caspase hit class: no change; viability robust z-score: -0.73; caspase robust z-score: 1.05; Outcome: inactive

For RCOR2 (GeneID 283248), what does the deposit list?
viability hit class: no change; caspase hit class: no change; viability robust z-score: 0.15; caspase robust z-score: 2.01; Outcome: inactive

How did the screen score KRT81 (GeneID 3887)?
viability hit class: no change; caspase hit class: no change; viability robust z-score: -2.27; caspase robust z-score: 4.83; Outcome: inactive

How did the screen score RECQL (GeneID 5965)?
viability hit class: no change; caspase hit class: no change; viability robust z-score: 1.26; caspase robust z-score: -0.26; Outcome: inactive

For PHKG1 (GeneID 5260), what was measured?
viability hit class: no change; caspase hit class: no change; viability robust z-score: -0.57; caspase robust z-score: -0.43; Outcome: inactive

With LTBP2 (GeneID 4053), how do the results read?
viability hit class: no change; caspase hit class: no change; viability robust z-score: -0.35; caspase robust z-score: -0.5; Outcome: inactive

With IFITM3 (GeneID 10410), what was measured?
viability hit class: no change; caspase hit class: no change; viability robust z-score: 0.37; caspase robust z-score: 0.38; Outcome: inactive

For N4BP3 (GeneID 23138), how do the results read?
viability hit class: no change; caspase hit class: no change; viability robust z-score: -0.16; caspase robust z-score: -0.48; Outcome: inactive
